Test results published in publication PMC3174200.
Construct, isoform or probe ends are uncertain for at least one entry. For some assays here: Where cells or extracts were used, other partners may take part. For some assays here: At least one verdict was read from the data and is not stated in words by the source.

Chains of the proteins cited; added tags and fusions are not shown. Lines headed by an entry give the natural chain unless they say otherwise; changes in a name come on top. A line that says so, or that is headed by a name, gives the form on record, which may keep a tag or linker.
UniProt Q9HC16: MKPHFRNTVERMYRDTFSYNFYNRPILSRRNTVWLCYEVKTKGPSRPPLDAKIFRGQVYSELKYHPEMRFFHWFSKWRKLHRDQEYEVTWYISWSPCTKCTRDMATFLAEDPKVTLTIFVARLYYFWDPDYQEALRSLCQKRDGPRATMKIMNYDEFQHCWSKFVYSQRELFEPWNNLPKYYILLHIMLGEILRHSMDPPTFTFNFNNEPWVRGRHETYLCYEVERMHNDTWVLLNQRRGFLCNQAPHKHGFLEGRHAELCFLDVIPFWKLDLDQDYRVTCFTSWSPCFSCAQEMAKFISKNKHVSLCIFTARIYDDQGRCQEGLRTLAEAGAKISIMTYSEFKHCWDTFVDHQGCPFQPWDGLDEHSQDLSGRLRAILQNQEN
Replication protein A (human RPA) (Homo sapiens), one chain, as listed by the source, chain 2 of 3: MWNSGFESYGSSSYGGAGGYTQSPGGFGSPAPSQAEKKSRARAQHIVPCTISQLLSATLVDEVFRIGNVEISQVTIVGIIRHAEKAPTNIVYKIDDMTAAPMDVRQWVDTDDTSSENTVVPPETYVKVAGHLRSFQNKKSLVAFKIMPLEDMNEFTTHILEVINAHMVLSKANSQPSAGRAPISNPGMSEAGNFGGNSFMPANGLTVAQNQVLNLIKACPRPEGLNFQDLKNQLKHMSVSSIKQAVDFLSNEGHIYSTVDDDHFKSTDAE
Replication protein A (human RPA) (Homo sapiens), one chain, as listed by the source, chain 3 of 3: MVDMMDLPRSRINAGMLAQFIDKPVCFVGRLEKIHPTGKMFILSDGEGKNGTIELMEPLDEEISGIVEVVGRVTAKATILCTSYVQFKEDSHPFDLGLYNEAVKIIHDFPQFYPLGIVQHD
Replication protein A (human RPA) (Homo sapiens), one chain, as listed by the source, chain 1 of 3: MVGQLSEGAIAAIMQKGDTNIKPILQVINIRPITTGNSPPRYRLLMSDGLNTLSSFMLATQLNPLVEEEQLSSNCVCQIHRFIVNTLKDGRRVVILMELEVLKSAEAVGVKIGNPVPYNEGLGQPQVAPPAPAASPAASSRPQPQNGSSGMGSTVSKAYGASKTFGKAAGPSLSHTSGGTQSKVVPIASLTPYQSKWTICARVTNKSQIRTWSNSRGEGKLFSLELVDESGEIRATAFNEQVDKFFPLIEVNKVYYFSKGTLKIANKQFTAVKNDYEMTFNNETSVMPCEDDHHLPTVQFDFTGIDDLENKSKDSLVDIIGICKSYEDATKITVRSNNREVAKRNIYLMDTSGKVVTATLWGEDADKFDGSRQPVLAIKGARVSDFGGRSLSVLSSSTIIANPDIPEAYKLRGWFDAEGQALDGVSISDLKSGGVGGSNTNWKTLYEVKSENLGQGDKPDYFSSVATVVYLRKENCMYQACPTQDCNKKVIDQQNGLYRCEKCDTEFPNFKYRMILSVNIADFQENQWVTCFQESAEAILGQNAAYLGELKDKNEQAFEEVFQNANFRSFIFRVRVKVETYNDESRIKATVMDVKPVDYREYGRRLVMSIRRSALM

Experiments:
[1] = biological target: APOBEC3G (A3G) (Homo sapiens) (UniProt Q9HC16); test: EMSA; settings: 5 mM Mg2+; 25 mM Tris-HCl pH 8.0, 50 mM NaCl, 5 mM MgCl2, 1 mM DTT, 10% glycerol, 15 min at 37 C; 4% acrylamide gel, 0.5x TBE (stated for A3G); protein in a lysate after overexpression; protein details: C-terminal Myc-His; label: 5'-Cy5; single-stranded DNA
[2] = tested on: Replication protein A (human RPA) (Homo sapiens); test: EMSA; settings: 25 mM Tris-HCl pH 8.0, 50 mM NaCl, 5 mM MgCl2, 1 mM DTT, 10% glycerol, 15 min at 37 C; 4% acrylamide gel, 0.5x TBE (stated for A3G); recombinant protein; label: 5'-Cy5; single-stranded DNA

Question: How did the Kd [1] turn out when “AAGACCATGACCGCCAGCTCAAGTGTAAGTTACATGCATCTCTACCAGAAGTCAGAGGTTAGATTAGAGAGTATTT [EMSA oligonucleotide]” was run?
Answer: Its Kd is 45 nM.

Question: Does “AAGACCATGACCGCCAGCTCAAGTGTAAGTTACATGCATCTCTACCAGAAGTCAGAGGTTAGATTAGAGAGTATTT [EMSA oligonucleotide]” bind [2]?
Answer: Result: binds
